Measurements from PMC11837972.
Results are given in words; binding and its absence hold for the method and conditions named. In cells and extracts the contact can be indirect. Binding calls can cover weak binding; strength is not graded here. For some of these results: Sequences can lack the tags named with a protein.

Amino acid sequences for entries named in this document (tags omitted). A change or cut given only in a name is not applied to a line headed by its entry.
UniProt Q14653: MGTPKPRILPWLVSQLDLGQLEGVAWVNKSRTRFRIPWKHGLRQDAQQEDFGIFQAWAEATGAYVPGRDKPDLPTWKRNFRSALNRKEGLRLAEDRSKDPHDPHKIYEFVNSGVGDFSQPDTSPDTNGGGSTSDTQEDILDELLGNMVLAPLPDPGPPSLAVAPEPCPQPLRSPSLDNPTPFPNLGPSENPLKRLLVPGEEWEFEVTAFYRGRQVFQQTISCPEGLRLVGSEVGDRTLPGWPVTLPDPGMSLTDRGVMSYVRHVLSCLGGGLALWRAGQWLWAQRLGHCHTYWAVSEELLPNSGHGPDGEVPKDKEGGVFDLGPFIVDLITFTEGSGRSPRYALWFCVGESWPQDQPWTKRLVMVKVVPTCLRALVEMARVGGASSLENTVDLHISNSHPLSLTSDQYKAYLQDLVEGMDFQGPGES
UniProt Q92793: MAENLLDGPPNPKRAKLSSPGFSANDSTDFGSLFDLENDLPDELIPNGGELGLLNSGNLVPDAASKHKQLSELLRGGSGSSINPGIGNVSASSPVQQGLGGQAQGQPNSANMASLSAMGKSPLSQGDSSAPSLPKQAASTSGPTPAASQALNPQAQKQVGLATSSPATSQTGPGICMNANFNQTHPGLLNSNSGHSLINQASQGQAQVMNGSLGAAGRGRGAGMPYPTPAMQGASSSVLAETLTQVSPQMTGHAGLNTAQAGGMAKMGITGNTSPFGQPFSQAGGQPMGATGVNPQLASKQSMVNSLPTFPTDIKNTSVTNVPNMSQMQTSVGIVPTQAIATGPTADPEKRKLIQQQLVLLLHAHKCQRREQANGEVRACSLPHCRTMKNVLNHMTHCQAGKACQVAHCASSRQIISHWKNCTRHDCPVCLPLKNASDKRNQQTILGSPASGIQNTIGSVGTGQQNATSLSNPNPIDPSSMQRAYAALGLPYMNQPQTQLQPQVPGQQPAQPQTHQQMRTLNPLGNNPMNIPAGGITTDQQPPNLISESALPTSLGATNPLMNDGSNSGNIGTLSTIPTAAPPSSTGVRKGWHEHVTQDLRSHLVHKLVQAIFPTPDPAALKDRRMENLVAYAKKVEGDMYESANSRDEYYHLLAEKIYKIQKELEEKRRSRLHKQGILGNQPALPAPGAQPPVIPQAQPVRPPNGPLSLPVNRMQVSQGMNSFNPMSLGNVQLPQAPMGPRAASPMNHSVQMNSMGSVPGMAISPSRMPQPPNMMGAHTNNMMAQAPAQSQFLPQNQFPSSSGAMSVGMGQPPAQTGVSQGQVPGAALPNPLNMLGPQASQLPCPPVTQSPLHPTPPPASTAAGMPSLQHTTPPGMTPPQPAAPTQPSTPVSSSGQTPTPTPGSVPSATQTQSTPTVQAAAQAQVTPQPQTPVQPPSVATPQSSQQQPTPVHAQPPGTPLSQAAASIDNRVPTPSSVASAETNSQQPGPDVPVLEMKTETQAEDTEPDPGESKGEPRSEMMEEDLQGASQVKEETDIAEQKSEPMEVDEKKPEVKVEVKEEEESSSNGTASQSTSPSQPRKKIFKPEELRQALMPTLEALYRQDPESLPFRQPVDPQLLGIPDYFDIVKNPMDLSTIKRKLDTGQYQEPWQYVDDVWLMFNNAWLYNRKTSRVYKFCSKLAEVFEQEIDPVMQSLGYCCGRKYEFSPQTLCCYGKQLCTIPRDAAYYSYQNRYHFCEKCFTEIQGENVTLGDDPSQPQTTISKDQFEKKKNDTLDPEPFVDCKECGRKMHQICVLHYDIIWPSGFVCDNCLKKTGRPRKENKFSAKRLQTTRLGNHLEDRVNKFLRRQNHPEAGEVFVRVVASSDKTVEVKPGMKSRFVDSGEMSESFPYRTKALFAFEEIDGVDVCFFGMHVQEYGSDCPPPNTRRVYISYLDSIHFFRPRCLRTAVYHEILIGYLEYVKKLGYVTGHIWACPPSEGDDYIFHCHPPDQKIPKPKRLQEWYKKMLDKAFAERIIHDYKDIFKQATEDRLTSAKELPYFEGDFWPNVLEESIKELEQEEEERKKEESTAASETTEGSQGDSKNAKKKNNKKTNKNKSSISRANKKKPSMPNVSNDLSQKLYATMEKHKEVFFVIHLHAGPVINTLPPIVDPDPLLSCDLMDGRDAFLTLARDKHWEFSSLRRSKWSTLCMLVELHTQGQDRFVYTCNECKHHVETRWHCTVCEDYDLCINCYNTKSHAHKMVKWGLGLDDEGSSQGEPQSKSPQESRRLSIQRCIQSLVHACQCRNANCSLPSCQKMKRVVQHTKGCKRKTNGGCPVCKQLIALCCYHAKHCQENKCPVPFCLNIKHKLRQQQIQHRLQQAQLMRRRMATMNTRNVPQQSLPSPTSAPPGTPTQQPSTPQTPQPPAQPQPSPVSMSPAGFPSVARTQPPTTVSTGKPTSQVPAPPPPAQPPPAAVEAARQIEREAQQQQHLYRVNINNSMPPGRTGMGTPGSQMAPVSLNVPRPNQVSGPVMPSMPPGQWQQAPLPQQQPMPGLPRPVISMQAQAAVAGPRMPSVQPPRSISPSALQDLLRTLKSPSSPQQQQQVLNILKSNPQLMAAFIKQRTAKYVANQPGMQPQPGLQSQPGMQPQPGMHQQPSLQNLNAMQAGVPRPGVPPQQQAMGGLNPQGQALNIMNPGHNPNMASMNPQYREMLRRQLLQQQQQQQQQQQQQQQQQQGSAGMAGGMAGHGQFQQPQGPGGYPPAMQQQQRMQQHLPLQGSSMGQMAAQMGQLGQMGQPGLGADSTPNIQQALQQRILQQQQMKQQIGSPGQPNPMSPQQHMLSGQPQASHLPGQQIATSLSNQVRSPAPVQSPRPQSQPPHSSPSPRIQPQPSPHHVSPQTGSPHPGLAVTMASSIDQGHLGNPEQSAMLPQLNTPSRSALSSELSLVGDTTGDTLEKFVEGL
UniProt Q09472: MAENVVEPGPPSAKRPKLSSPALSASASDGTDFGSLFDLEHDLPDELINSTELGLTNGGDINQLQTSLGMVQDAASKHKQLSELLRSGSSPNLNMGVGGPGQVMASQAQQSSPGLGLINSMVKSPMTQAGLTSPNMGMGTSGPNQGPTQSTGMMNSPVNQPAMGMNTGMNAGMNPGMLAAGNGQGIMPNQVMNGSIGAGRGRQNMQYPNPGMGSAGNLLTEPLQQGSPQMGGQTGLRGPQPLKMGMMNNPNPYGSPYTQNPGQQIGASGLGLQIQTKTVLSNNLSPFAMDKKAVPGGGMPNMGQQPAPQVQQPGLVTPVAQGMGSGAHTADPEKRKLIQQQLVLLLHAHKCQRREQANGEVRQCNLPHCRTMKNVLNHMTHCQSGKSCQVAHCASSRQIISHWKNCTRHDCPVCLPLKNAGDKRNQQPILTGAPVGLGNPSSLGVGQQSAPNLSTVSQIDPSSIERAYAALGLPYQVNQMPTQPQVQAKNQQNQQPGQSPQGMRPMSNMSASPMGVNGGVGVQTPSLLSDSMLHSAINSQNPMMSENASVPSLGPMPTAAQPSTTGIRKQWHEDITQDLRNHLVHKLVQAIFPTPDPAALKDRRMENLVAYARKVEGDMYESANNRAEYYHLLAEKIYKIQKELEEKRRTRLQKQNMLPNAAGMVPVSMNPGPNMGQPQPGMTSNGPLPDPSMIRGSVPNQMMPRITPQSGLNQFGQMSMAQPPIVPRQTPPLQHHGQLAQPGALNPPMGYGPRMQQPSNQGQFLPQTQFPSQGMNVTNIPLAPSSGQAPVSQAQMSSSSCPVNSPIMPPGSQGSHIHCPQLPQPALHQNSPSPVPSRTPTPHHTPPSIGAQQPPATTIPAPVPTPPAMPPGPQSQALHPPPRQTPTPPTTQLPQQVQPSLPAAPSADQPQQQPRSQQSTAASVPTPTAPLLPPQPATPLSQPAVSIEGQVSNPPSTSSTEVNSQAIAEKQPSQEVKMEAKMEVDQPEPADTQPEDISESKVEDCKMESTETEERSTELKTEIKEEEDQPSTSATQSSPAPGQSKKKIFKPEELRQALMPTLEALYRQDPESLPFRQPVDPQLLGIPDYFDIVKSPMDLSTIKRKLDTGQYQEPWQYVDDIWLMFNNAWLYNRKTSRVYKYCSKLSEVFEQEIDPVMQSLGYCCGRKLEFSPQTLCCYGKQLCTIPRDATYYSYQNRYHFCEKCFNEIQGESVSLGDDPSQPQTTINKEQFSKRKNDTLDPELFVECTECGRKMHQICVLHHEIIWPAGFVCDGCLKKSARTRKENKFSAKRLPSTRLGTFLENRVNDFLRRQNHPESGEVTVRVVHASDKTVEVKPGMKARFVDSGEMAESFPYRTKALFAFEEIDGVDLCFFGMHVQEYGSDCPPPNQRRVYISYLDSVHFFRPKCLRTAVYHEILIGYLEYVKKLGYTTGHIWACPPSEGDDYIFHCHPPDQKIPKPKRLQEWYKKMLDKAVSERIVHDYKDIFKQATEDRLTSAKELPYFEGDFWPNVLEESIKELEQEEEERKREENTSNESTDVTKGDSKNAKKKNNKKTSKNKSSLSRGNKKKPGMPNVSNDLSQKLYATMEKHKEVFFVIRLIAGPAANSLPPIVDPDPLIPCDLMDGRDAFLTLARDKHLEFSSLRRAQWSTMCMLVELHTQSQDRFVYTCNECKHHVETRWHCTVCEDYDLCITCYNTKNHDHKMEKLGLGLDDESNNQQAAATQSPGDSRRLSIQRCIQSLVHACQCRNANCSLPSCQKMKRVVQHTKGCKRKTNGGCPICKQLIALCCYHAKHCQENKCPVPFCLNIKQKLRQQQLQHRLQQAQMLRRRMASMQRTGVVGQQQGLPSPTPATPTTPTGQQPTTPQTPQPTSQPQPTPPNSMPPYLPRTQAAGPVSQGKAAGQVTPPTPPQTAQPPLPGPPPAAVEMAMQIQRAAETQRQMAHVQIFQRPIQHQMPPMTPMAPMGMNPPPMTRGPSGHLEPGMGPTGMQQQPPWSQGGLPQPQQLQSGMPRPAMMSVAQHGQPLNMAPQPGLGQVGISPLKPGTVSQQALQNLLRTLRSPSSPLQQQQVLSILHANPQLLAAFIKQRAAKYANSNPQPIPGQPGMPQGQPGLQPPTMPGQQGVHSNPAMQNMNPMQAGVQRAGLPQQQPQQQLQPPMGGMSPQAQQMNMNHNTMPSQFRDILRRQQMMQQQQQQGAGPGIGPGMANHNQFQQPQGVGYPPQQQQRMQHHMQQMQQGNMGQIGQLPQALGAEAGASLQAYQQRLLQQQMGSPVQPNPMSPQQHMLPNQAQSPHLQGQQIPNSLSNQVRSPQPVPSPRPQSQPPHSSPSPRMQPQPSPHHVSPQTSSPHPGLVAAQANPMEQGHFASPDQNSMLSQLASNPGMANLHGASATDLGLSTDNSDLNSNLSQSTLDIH

Experiments:
[1] = target: HA-IRF3-5D (a constitutively active IRF3 mutant) (UniProt Q14653); test: co-IP; HEK293T transfected with HA-IRF3-5D and EGFP-PARP7 or EGFP-PARP7-H532A; IP with HA antibody; endogenous CBP/p300 blotted; the text says 'in the nucleus'
[2] = target: HA-IRF3-5D (a constitutively active IRF3 mutant) (UniProt Q14653); test: co-IP; HEK293T co-transfected with HA-IRF3 or HA-IRF3-5D and EGFP-PARP7 constructs; IP with HA antibody on Protein G or A Dynabeads overnight at 4°C; IP lysis buffer 20 mM Tris-HCl pH 7.4, 0.5% Nonidet-P40, 150 mM NaCl, 1 μM veliparib; blotted

| binding [1] | binding [2] | Molecule |
| --- | --- | --- |
| binds | – | CREB-binding protein (CBP), endogenous in HEK293T (from UniProt Q92793 1-2442) |
| binds | – | p300, endogenous in HEK293T (from UniProt Q09472 1-2414) |
| – | binds | EGFP-PARP7 (enzyme, UniProt Q7Z3E1 1-657) MEMETTEPEPDCVVQPPSPPDDFSCQMRLSEKITPLKTCFKKKDQKRLGTGTLRSLRPILNTLLESGSLDGVFRSRNQSTDENSLHEPMMKKAMEINSSCPPAENNMSVLIPDRTNVGDQIPEAHPSTEAPERVVPIQDHSFPSETLSGTVADSTPAHFQTDLLHPVSSDVPTSPDCLDKVIDYVPGIFQENSFTIQYILDTSDKLSTELFQDKSEEASLDLVFELVNQLQYHTHQENGIEICMDFLQGTCIYGRDCLKHHTVLPYHWQIKRTTTQKWQSVFNDSQEHLERFYCNPENDRMRMKYGGQEFWADLNAMNVYETTEFDQLRRLSTPPSSNVNSIYHTVWKFFCRDHFGWREYPESVIRLIEEANSRGLKEVRFMMWNNHYILHNSFFRREIKRRPLFRSCFILLPYLQTLGGVPTQAPPPLEATSSSQIICPDGVTSANFYPETWVYMHPSQDFIQVPVSAEDKSYRIIYNLFHKTVPEFKYRILQILRVQNQFLWEKYKRKKEYMNRKMFGRDRIINERHLFHGTSQDVVDGICKHNFDPRVCGKHATMFGQGSYFAKKASYSHNFSKKSSKGVHFMFLAKVLTGRYTMGSHGMRRPPPVNPGSVTSDLYDSCVDNFFEPQIFVIFNDDQSYPYFVIQYEEVSNTVSI |
| – | binds | EGFP-PARP7-H532A (enzyme, UniProt Q7Z3E1 1-657) MEMETTEPEPDCVVQPPSPPDDFSCQMRLSEKITPLKTCFKKKDQKRLGTGTLRSLRPILNTLLESGSLDGVFRSRNQSTDENSLHEPMMKKAMEINSSCPPAENNMSVLIPDRTNVGDQIPEAHPSTEAPERVVPIQDHSFPSETLSGTVADSTPAHFQTDLLHPVSSDVPTSPDCLDKVIDYVPGIFQENSFTIQYILDTSDKLSTELFQDKSEEASLDLVFELVNQLQYHTHQENGIEICMDFLQGTCIYGRDCLKHHTVLPYHWQIKRTTTQKWQSVFNDSQEHLERFYCNPENDRMRMKYGGQEFWADLNAMNVYETTEFDQLRRLSTPPSSNVNSIYHTVWKFFCRDHFGWREYPESVIRLIEEANSRGLKEVRFMMWNNHYILHNSFFRREIKRRPLFRSCFILLPYLQTLGGVPTQAPPPLEATSSSQIICPDGVTSANFYPETWVYMHPSQDFIQVPVSAEDKSYRIIYNLFHKTVPEFKYRILQILRVQNQFLWEKYKRKKEYMNRKMFGRDRIINERHLFAGTSQDVVDGICKHNFDPRVCGKHATMFGQGSYFAKKASYSHNFSKKSSKGVHFMFLAKVLTGRYTMGSHGMRRPPPVNPGSVTSDLYDSCVDNFFEPQIFVIFNDDQSYPYFVIQYEEVSNTVSI |
